From paper doi:10.1101/595702
No constants are given. Whether binding was seen depends on the method and setting. Binding seen in cells or lysates may run through a third protein. These calls come from enrichment with a bait or labelling near it, and not all partners need be listed. Sequences can lack the tags named with a protein.

Chains of the proteins cited; added tags and fusions are not shown.
UniProt Q15154: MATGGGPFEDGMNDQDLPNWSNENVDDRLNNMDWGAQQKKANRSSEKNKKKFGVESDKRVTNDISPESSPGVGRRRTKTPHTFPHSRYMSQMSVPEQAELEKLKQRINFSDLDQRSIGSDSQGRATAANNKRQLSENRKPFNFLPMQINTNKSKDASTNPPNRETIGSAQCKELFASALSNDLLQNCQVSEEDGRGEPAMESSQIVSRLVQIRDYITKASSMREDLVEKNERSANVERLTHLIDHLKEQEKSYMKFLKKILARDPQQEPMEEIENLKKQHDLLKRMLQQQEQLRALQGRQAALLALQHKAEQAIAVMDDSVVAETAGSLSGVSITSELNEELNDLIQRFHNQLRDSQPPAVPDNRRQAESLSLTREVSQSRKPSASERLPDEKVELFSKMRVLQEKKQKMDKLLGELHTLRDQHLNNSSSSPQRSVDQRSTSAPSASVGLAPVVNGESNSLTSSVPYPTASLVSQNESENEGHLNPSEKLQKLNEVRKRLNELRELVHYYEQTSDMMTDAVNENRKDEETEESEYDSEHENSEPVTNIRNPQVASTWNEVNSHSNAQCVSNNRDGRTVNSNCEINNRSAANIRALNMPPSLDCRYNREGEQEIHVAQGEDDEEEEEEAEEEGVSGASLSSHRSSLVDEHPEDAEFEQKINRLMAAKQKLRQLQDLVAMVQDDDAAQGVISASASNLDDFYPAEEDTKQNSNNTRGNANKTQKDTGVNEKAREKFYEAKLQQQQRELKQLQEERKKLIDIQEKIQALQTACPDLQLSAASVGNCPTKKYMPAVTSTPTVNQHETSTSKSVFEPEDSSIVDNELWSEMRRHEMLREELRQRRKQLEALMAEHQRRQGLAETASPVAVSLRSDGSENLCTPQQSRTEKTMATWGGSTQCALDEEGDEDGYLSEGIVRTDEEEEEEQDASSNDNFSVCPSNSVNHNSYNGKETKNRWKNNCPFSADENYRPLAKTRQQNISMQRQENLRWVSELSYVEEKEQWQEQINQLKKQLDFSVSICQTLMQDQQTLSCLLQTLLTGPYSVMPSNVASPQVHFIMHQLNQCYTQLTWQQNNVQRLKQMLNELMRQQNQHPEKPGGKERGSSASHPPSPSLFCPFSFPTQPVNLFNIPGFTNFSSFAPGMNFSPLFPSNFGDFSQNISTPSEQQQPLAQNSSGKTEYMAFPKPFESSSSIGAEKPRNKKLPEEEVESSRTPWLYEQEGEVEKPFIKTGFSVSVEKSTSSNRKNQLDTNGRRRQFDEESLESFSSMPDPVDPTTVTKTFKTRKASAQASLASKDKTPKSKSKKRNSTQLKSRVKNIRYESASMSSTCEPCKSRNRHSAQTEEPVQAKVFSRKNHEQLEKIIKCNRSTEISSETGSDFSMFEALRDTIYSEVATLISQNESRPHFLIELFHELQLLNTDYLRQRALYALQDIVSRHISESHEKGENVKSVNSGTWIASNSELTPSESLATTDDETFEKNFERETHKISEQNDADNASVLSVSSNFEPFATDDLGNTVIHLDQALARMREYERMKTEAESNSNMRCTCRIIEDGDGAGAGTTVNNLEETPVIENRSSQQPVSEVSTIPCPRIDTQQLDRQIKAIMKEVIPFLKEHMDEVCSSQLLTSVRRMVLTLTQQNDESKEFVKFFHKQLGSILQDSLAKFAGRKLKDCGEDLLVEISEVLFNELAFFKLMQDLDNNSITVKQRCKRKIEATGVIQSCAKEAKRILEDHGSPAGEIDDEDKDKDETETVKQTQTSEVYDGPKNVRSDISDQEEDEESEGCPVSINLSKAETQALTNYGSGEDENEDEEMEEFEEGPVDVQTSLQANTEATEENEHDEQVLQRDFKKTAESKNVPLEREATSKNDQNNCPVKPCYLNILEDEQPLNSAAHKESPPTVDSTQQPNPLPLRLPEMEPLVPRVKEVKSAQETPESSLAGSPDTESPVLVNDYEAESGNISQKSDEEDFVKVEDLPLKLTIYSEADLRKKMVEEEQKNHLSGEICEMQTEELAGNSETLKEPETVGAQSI

Target: T1, FLAG-tagged TCHP (Trichoplein), bait of the co-IP with mass spectrometry (human) (UniProt Q9BT92)
T1 sequence: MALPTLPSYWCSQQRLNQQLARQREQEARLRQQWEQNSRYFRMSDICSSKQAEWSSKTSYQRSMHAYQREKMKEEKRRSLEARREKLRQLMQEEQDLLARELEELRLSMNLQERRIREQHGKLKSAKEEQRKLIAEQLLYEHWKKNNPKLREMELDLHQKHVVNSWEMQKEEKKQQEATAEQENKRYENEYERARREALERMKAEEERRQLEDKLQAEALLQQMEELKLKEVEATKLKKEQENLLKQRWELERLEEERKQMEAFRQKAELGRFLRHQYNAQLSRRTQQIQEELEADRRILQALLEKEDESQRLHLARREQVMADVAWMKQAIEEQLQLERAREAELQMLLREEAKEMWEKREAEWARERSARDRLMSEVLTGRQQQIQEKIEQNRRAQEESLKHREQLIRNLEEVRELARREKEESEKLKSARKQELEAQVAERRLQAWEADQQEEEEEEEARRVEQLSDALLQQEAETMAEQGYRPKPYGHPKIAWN
Test: affinity purification with mass spectrometry

binding: binds
Substance: PCM1, endogenous in HEK293 cells (from UniProt Q15154 1-2024)
